{
  "source": "paper PMC9499535",
  "about": "“Distinct architectural requirements for the parS centromeric sequence of the pSM19035 plasmid partition machinery”",
  "binders": {"B1": {"name": "ParBpSM-Alexa647 (ParBpSM-GCE, 1% labeled) (protein, UniProt Q57468 1-71)", "chain": "MIVGNLGAQKAKRNDTPISAKKDIMGDKTVRVRADLHHIIKIETAKNGGNVKEVMDQALEEYIRKYLPDKL", "modifications": "Alexa647 maleimide on the added cysteine (73C); 1% of the protein labelled"}},
  "target": "ParApSM-GFP-His6 (Streptococcus pyogenes (plasmid pSM19035))",
  "assay": "TIRF microscopy on an nsDNA-carpeted flow cell; preformed ParApSM-GFP/ParBpSM-Alexa647 complexes on the nsDNA-carpet with 7R- or 4R-parSpSM, washed with ATP buffer containing ParApSM-GFP (0.5 μM); ParBpSM-Alexa647 dissociation followed; both purified",
  "note": "Results are given in words; binding and its absence hold for the method and conditions named. Binding can be weak; no strength is given.",
  "data": [
    {"binder": "B1", "values": [
      {"measurement": "binding", "value": "binds"}
    ]}
  ]
}
